Source: patent US20260217667A1, “AMYLOID TARGETING AGENTS” (Amydis, Inc., priority 2023, published 2026)

Tested on: 3RTau
Assay: Fluorescence emission spectra of compounds with and without aggregated 3RTau
Type: binding
Protocol: Emission spectra for compound 1 and compound 1a were collected after incubation of the compounds with and without aggregated amyloidogenic protein at specific excitation wavelengths (450 nm and 488 nm) employed in standard ocular imaging equipment. Amyloidogenic proteins (synthetic aggregated amyloid beta (Aβ), α-synuclein (ASYN), transthyretin (TTR), TAR DNA-binding protein 43 (TDP43), and phosphorylated tau (TAU)) were aggregated in vitro using the following procedure. The amyloidogenic protein was removed from the freezer and allowed to warm to room temperature, then 1 mg of amyloidogenic protein was dissolved in 215 μL of ddH2O for about 10-20 mins at room temperature. To the resulting solution, 2 mL of ddH2O was added to provide a 100 μM stock solution. A 100 μL aliquot was sampled and frozen (non-aggregated sample). The tubes were placed in a thermoshaker at 350 rpm for 3 days. Care was taken to avoid generating bubbles. Protein aggregation was confirmed by measuring binding to Thioflavin T (ThT). Aggregated protein was then portioned into 150 μL aliquots and stored at −80° C. The fluorescent emission spectra were measured as follows to determine binding of synthetic aggregated amyloid beta (Aβ), α-synuclein (ASYN), transthyretin (TTR), TAR DNA-binding protein 43 (TDP43), and phosphorylated tau (TAU) to test compounds described herein. The Shimadzu fluorimeter was turned on and allowed to warm up for ~60 minutes. The test compounds were then removed from the −20° C. freezer and were allowed to warm to room temperature. The 100 μM aggregated Aβ solution was then removed from the −80° C. freezer and also allowed to warm to room temperature. 250 μM solutions of each test compound in DMSO were then prepared. These were then used to prepare 4 μM solutions of each test compound, with and without 5 μM aggregated Aβ in 1×PBS, in triplicates. Using a cuvette, the fluorescent emission spectra were measured for each test compound+Aβ solution, employing a DMSO/PBS solution as a blank. Each sample was tested at an excitation of 450 nm and 488 nm. Fluorescent emission spectra were then collected for each 4 μM test compound solution alone. The resulting data were used to plot intensity vs. wavelength for each emission scan. The fold increase at maximum emission (compound+Aβ/compound) is calculated for each test compound.

Row | SMILES | Peak emission (excitation 450 nm) | Peak emission (excitation 488 nm)
1 | N#C/C(=C\c1ccc2cc(N3CCCCC3)ccc2c1)C(=O)CCC(O)CO (stereo not shown) [Compound 1a, (E)-6,7-dihydroxy-3-oxo-2-((6-(piperidin-1-yl)naphthalen-2-yl)methylene)heptanenitrile] | 573 | 571
2 | N#C/C(=C\c1ccc2cc(N3CCCCC3)ccc2c1)C(=O)CCCOCCOCCO [Compound 1, (E)-6-(2-(2-hydroxyethoxy)ethoxy)-3-oxo-2-((6-(piperidin-1-yl)naphthalen-2-yl)methylene)hexanenitrile] | 571 | 577
